According to patent US20190225643A1, “NOVEL NUCLEOSIDE ANALOGS AND USE THEREOF IN THERAPEUTIC TREATMENT” (CORNELL UNIVERSITY, priority 2016, published 2019):
Some entries share one result that the patent states for a list of compounds. At least one structure is not confirmed: it was looked up by name or label, or the drawing left a doubt.

System: BC3 (PEL)
Assay type: cell-based
Settings: ADK inhibitors, 48 hours; read-out: LC50 in BC3 cells
Protocol: Cell viability assays were performed by plating log-phase cells in RPMI complete media with 20% FBS at 1*10^5 cells/mL, with concentrations of 6-ETI or phospho-6-ETI ranging from 0.1 nM to 100 μM. ATP content at 24, 48 and 72 hours post-treatment was measured by the CellTiter-Glo kit (Promega, Madison, Wis.), or by Trypan blue assay as indicated. The LC50 for 6-ETI in each cell line was determined using online EC50 software at changbioscience.com or using GraphPad Prism to determine the LC50 for 6-ETI, phospho-6-ETI and nucleoside analogs in MM cell lines and primary MM patient samples.

| SMILES | CC50 [µM] |
| --- | --- |
| Nc1ncnc2nc(-c3ccc(N4CCOCC4)nc3)cc(-c3cccc(Br)c3)c12 [ABT-702] | > 10 |
| Nc1ncnc2c1c(I)cn2[C@@H]1C[C@H](N)[C@@H](O)[C@H]1O [Compound A-134974] | > 10 |
